The values that follow come from doi:10.1101/2023.10.18.562906.

Sequences of proteins named here, by UniProt entry; tags and fusion partners are left off. A change or cut given only in a name is not applied to a line headed by its entry.
UniProt Q8IWT3: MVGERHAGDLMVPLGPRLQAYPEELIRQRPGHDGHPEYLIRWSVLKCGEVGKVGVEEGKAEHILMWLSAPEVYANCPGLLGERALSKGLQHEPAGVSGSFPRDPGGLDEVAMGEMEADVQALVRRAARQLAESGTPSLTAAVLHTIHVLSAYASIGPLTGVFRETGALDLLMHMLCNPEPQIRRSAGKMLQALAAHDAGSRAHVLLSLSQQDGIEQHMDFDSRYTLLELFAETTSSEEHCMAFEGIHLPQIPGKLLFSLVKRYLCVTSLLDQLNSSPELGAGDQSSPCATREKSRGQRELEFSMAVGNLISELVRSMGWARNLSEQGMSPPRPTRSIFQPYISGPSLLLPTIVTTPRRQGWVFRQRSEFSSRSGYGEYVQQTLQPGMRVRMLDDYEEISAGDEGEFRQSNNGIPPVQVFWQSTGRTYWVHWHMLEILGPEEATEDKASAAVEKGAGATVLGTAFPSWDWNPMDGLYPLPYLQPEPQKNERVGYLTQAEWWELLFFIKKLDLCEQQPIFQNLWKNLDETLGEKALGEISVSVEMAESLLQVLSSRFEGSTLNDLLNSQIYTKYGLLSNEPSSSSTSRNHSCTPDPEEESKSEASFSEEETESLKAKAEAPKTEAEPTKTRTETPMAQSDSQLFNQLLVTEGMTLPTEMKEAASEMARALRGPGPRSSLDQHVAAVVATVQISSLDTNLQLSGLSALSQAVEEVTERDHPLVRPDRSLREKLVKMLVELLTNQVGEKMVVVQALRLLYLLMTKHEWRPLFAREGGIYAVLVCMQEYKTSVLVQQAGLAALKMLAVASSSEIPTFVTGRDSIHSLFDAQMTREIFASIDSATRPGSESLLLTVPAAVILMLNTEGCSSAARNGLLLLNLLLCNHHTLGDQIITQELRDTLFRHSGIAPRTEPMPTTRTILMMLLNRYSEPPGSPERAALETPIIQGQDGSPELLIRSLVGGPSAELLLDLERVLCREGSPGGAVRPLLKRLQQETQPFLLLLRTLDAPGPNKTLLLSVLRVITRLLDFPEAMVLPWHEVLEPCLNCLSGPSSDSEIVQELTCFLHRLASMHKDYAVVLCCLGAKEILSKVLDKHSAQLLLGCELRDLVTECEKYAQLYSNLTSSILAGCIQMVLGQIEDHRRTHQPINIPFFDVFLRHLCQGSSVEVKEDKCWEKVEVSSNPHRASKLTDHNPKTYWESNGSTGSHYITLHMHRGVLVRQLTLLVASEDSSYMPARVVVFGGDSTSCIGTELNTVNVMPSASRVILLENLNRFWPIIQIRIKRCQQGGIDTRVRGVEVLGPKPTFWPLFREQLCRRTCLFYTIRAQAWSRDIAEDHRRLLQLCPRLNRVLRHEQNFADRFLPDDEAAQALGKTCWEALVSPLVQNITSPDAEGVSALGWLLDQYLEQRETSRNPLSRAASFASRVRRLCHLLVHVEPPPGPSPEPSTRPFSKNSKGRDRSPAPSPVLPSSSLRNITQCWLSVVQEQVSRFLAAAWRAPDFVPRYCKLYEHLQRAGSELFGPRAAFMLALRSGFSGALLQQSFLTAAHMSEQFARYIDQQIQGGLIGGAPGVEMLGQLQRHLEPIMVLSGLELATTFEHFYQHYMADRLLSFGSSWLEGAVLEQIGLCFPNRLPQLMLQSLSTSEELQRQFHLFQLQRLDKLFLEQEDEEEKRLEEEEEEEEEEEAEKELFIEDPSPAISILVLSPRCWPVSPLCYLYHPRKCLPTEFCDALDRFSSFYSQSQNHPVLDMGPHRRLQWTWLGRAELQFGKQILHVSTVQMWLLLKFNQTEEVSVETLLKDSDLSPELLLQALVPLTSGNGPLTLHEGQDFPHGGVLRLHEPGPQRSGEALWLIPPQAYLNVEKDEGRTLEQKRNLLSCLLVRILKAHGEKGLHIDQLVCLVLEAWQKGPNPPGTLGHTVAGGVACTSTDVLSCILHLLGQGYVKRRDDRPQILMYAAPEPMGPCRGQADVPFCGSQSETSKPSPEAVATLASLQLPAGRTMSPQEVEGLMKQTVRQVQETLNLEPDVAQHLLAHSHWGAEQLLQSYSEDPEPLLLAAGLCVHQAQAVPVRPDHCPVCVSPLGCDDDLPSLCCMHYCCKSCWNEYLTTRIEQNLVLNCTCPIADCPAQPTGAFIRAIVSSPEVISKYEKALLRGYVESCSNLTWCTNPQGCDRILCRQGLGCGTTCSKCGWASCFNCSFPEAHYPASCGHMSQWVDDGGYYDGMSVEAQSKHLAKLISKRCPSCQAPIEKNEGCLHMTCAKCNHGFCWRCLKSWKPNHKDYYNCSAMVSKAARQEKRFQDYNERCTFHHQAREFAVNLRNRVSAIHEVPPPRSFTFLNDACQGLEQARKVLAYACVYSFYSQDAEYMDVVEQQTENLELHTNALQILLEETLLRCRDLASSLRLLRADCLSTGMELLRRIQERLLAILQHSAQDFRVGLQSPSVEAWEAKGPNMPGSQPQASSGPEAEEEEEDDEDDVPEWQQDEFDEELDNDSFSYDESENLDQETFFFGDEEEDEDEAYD
UniProt P07947: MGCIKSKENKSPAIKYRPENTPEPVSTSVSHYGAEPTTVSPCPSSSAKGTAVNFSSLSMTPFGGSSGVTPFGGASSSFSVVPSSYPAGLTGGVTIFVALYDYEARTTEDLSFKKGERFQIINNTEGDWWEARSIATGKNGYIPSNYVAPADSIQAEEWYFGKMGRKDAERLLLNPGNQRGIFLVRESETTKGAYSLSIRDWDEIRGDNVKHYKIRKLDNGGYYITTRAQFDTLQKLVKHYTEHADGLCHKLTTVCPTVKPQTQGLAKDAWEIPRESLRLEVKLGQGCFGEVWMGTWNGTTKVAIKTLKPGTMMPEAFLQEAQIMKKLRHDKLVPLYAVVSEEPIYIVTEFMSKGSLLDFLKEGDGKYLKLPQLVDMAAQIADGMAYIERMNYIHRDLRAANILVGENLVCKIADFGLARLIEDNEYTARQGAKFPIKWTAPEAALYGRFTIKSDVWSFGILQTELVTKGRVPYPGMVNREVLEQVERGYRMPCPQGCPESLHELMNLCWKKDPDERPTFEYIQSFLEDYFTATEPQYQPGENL

These are yes or no findings as the source states them, for the method shown. Binding seen in cells or lysates may run through a third protein. Some binding calls cover weakened binding; strength is not graded here.

Test [1] addresses HA-Cul9 (UniProt Q8IWT3). As to the kind of experiment: co-IP.
For test [2], the target named is endogenous Cul9 (gastric cancer cells) (human (endogenous in SGC7901)) (UniProt Q8IWT3). Put plainly: proximity ligation.
Test [3] shares this target. Put plainly: co-IP.
Test [4] concerns the target Cul9 (HEK293T, immunoprecipitated with anti-Cul9) (UniProt Q8IWT3). Put plainly: co-IP.
Test [5] addresses Cul9-Y1505F (UniProt Q8IWT3). As to the kind of experiment: co-IP.
For test [6], the target named is Cul9-K1657R mutant (UniProt Q8IWT3). As to the kind of experiment: co-IP.

With “Flag-Yes1 (from UniProt P07947 1-543) (enzyme)”, the binding result in test [1] was “binds”.

For “endogenous Yes1 (gastric cancer cells) (from UniProt P07947 1-543) (enzyme)”, the binding entry in test [2] and in test [3] was “binds” each time.

For the substance “p62 (HEK293T) (from UniProt Q13501 1-440)”, the binding entry in test [4] is “binds”; in test [5], “no binding”.

As for “p62 (gastric cancer cells) (from UniProt Q13501 1-440)”, the binding result in test [6] was “no binding”; in test [3], “binds”.
